Results: patent US7288381 (PHADIA, dated 2007)

Key:
[1] = molecular target: natural group 2 allergen from oat pollen (oat); test: particle blotting of pollen grains
[2] = molecular target: natural group 2 allergen from Kentucky Bluegrass pollen (Kentucky Bluegrass); test: particle blotting of pollen grains
[3] = molecular target: natural group 2 allergen from sweet vernal grass pollen (sweet vernal grass); test: particle blotting of pollen grains
[4] = molecular target: natural group 2 allergen from rye pollen (rye); test: particle blotting of pollen grains
[5] = molecular target: natural group 2 allergen from oat pollen (oat); test: immunoblot of natural pollen extracts
[6] = molecular target: natural group 2 allergen from Kentucky Bluegrass pollen (Kentucky Bluegrass); test: immunoblot of natural pollen extracts
[7] = molecular target: natural group 2 allergen from sweet vernal grass pollen (sweet vernal grass); test: immunoblot of natural pollen extracts
[8] = molecular target: natural group 2 allergen from rye pollen (rye); test: immunoblot of natural pollen extracts

Measured: binding

B1: Phl p 2-specific human IgE Fab, clone 94 (Fab, V domains shown)
VH: LESGPGLVKPAQTLSLSCAVSGGSIRSGGYYWSWIRQHPGKGLEWIGYIYHSGNTYYNPSLKSRIAMSVDTSENKFSLRLNSVTAADTAVYYCARLDGYTLDIWGQGTLVTVSS
VL: ELTQSPSSLSASVGDRVTISCRASQRINTYLNWYQHKPGKAPKLLIYAASSLQSGVPSRFSGSGYGTDFTLTISSLQFEDFASYYCQESLSASYTFGQGTKVEIKR
notes: Human IgE Fab (heavy chain fragment Fd plus kappa light chain) expressed from pComb3H in E. coli and used as bacterial extract; they start at the Xho I / Sac I cloning sites; also called clone 94-derived IgE Fab; rPhl p 2-specific IgE Fab
binds: all assays above

B2: Phl p 2-specific human IgE Fab, clone 60 (Fab, V domains shown)
VH: LESGPGLVKPSQTLSLTCTVSGGSIRSGGYYWSWVRQPPGKGLEWIGNIYHSGNTYYNPSLKSRITMSVDTSKNHFSLRLTSVTAADTAVYYCARSDGYTLDNWGQGTLVTVSS
VL: ELTQSPSSLSASVGDRVTITCRARQSISTYLNWYQQKPGKAPKLLIWSASNLQSGVPSRFSGSGSGTEFTLTISNLQFEDFASYYCQQSYTTLYTFGSGTKLEIKR
notes: Human IgE Fab (Fd plus kappa light chain) expressed from pComb3H in E. coli and used as bacterial extract; also called rPhl p 2-specific IgE Fab; anti-Phl p 2 Fab
binds: all assays above

B3: Phl p 2-specific human IgE Fab, clone 100 (Fab, V domains shown)
VH: LESGPGLVKPSQTLSLTCTVSGGSIRSGGYYWSWIRQPPGKGLEWIGYIYHSGNTYYNPSLKSRVTMSVDTSKNHFSLRLSSVTAADTAVYYCARSDGYTLDNWGQGTLVTVSS
VL: ELTQSPSSVSASVGDRVTITCRASQGISSWLAWYQHQPGKAPKLLIYSASSLQSGVPSRFSGSGYGTDFSLTISSLQFEDSATYYCQQANSFPYTFGQGTKVEIKR
notes: as for B2
binds: all assays above

Results are given in words; binding and its absence hold for the method and conditions named. A result given as binding can be weak or reduced; the word gives no strength.
